The values below come from article PMC8270999.

These are yes or no findings as the source states them, for the method shown. Binding seen in cells or lysates may run through a third protein. These calls come from enrichment with a bait or labelling near it, and not all partners need be listed. Sequences can lack the tags named with a protein.

For this experiment, the target named is T1, HA-tagged human GLDC (human) (UniProt P23378).
T1 sequence: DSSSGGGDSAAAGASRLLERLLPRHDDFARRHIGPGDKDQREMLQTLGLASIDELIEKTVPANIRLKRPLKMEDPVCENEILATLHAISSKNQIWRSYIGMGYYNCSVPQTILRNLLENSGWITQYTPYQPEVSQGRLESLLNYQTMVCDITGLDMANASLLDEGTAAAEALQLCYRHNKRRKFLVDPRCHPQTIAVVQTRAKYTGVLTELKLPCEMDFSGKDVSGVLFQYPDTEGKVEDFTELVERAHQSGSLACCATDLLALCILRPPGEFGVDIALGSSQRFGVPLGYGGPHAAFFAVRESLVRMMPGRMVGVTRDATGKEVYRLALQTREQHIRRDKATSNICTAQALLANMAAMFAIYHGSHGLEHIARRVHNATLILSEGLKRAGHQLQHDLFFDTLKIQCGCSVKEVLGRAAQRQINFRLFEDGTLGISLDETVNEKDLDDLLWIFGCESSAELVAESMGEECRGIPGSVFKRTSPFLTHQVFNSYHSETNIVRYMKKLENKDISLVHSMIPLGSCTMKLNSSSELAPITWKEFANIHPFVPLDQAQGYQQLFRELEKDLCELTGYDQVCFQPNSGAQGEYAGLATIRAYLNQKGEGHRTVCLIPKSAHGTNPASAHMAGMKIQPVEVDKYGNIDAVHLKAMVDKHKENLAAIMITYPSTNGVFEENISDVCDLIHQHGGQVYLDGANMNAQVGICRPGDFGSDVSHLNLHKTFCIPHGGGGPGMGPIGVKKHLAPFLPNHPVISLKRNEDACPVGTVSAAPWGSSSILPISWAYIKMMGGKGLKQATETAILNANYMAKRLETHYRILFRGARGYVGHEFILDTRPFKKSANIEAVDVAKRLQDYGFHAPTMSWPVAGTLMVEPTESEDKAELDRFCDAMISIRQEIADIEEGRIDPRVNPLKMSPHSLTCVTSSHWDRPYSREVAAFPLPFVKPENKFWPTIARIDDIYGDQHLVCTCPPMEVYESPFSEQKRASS
Nature of the experiment: affinity purification with mass spectrometry; HA-tagged human GLDC expressed in HEK293 cells (1 x 10^8), immunoprecipitated with anti-HA, desalted, bound proteins analysed by MS.

B1: endogenous NF-X1 (enzyme, UniProt Q12986 1-1120)
chain: MAEAPPVSGTFKFNTDAAEFIPQEKKNSGLNCGTQRRLDSNRIGRRNYSSPPPCHLSRQVPYDEISAVHQHSYHPSGSKPKSQQTSFQSSPCNKSPKSHGLQNQPWQKLRNEKHHIRVKKAQSLAEQTSDTAGLESSTRSESGTDLREHSPSESEKEVVGADPRGAKPKKATQFVYSYGRGPKVKGKLKCEWSNRTTPKPEDAGPESTKPVGVFHPDSSEASSRKGVLDGYGARRNEQRRYPQKRPPWEVEGARPRPGRNPPKQEGHRHTNAGHRNNMGPIPKDDLNERPAKSTCDSENLAVINKSSRRVDQEKCTVRRQDPQVVSPFSRGKQNHVLKNVETHTGSLIEQLTTEKYECMVCCELVRVTAPVWSCQSCYHVFHLNCIKKWARSPASQADGQSGWRCPACQNVSAHVPNTYTCFCGKVKNPEWSRNEIPHSCGEVCRKKQPGQDCPHSCNLLCHPGPCPPCPAFMTKTCECGRTRHTVRCGQAVSVHCSNPCENILNCGQHQCAELCHGGQCQPCQIILNQVCYCGSTSRDVLCGTDVGKSDGFGDFSCLKICGKDLKCGNHTCSQVCHPQPCQQCPRLPQLVRCCPCGQTPLSQLLELGSSSRKTCMDPVPSCGKVCGKPLPCGSLDFIHTCEKLCHEGDCGPCSRTSVISCRCSFRTKELPCTSLKSEDATFMCDKRCNKKRLCGRHKCNEICCVDKEHKCPLICGRKLRCGLHRCEEPCHRGNCQTCWQASFDELTCHCGASVIYPPVPCGTRPPECTQTCARVHECDHPVYHSCHSEEKCPPCTFLTQKWCMGKHEFRSNIPCHLVDISCGLPCSATLPCGMHKCQRLCHKGECLVDEPCKQPCTTPRADCGHPCMAPCHTSSPCPVTACKAKVELQCECGRRKEMVICSEASSTYQRIAAISMASKITDMQLGGSVEISKLITKKEVHQARLECDEECSALERKKRLAEAFHISEDSDPFNIRSSGSKFSDSLKEDARKDLKFVSDVEKEMETLVEAVNKGKNSKKSHSFPPMNRDHRRIIHDLAQVYGLESVSYDSEPKRNVVVTAIRGKSVCPPTTLTGVLEREMQARPPPPIPHHRHQSDKNPGSSNLQKITKEPIIDYFDVQD
With B1, the binding entry was “binds”.
